# Assay: general procedure: solution-phase peptide synthesis; HATU/DIPEA
# Details: coupling step
substance,measurement,value
"ethyl(S,E)-4-((S)-2-((R)-3-(3-((S)-2-((S)-2-((((9H-fluoren-9-yl)methoxy)carbonyl)amino)-3-methylbutanamido)propanamido)phenyl)-3-methyl-2-(methylamino)butanamido)-N,3,3-trimethylbutanamido)-2,5-dimethylhex-2-enoate",step yield,70%

# From US11866515B2 (priority 2015, dated 2024)
